# Reference: PubChem BioAssay AID504467 (National Center for Advancing Translational Sciences (NCATS), 2011)
# The campaign covered roughly 330,000 compounds. About 7,700 (2.3%) were called active. The inconclusive results got no clear call from the source; some entries with a clear call stand among them for comparison. Calls follow the shape of the dose curve; as a rule, active = well fitted inhibition curve with a large enough effect; inconclusive = small, poorly fitted or top-dose-only effect, or effect the other way; inactive = flat fitted curve, though single readings scatter. Potencies of inconclusive entries are doubtful fits and often do not repeat.
# Experiment: qHTS screen for small molecules that inhibit ELG1-dependent DNA repair in human embryonic kidney (HEK293T) cells expressing luciferase-tagged ELG1; also: nearly all actives have a fitted effect of over 55% in size
# Conditions: HEK293T ELG1-luciferase reporter, luminescence, 16 h, DNA damage induced by 5-fluorouridine; series mostly up to 46.1 µM
# Summary of the method: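 Cells (2,000 per well) received 5-fluorouridine plus test compound or DMSO and were incubated 16 hr at 37 °C, 5% CO2. Luciferase activity was read by luminescence 30 min after ONE-Glo addition; signal suppression marked inhibition of damage-induced ELG1 function.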
# Potency is read from the fitted curve at half-maximal effect.
row,Compound,Potency
1,Cc1cc(C)n(CCNc2nc3nonc3nc2N2CCCCC2)n1,inactive
2,O=C(Nc1ccc([N+](=O)[O-])cc1)N1CCc2ccccc2C1,"inconclusive: 29.1 µM [inhibitor, single point]"
3,CCCCCCn1cnc2c(oc3nc4c(cc32)CCCC4)c1=O,"inconclusive: 8.2 µM [activator, partial curve]"
4,Cc1ccc(C(=O)N2CCN(CCNC(=O)C(=O)Nc3ccc(Cl)cc3)CC2)cc1,"inconclusive: 20.6 µM [inhibitor, partial curve, poor fit]"
5,CC(C)(C)c1nnc(N/N=C/c2ccc(O)cc2)n(N)c1=O,"inconclusive: 18.4 µM [inhibitor, single point]"
6,COC(=O)c1c(-c2ccc(OC)cc2)sc2cc3c(cc12)OCO3,"inconclusive: 10.3 µM [activator, partial curve]"
7,COc1ccccc1C(=O)NCC(=O)N=Nc1c(O)n(C(C)C)c2ccccc12,inactive
8,CS(=O)(=O)N(CC(=O)NCCSCc1c(F)cccc1Cl)c1ccc2c(c1)OCO2,"inconclusive: 18.4 µM [inhibitor, partial curve, poor fit]"
9,COc1ccc(-n2c(O)c(Cc3ccccc3)c(=O)n3nc(-c4ccccc4)c(=O)cc23)cc1,"inconclusive: 16.4 µM [activator, single point]"
10,Cc1cccc(C)c1NC(=S)N(CCCN1CCCCC1)Cc1ccco1,inactive
11,COc1cc(OC)cc(C(=O)N/N=C(\C)CC(=O)Nc2ccccn2)c1,"inconclusive: 16.4 µM [inhibitor, single point]"
12,CCOc1ccc(-n2c(SCc3nc(-c4ccc(C)cc4)no3)nnc2-c2ccncc2)cc1,"inconclusive: 18.4 µM [inhibitor, single point]"
13,CC(NC(=O)CCn1nc(-c2ccc(Cl)cc2)ccc1=O)c1ccccc1 (configuration not stated),"inconclusive: 9.2 µM [inhibitor, partial curve]"
14,C[C@H](CO)N1C[C@H](C)[C@@H](CN(C)C(=O)Nc2ccc(C(F)(F)F)cc2)Oc2ccc(NC(=O)Nc3ccccc3)cc2C1=O,inactive
15,COCCNC(=O)c1cc(-c2ccc(-c3ccccc3)cc2)nc2ccccc12,inactive
16,COc1cc(CN2CCN(Cc3ccc(C)cc3)CC2)c([N+](=O)[O-])cc1OC,active: 20.6 µM
17,CCOC(=O)/C=C/COc1ccccc1[N+](=O)[O-],"inconclusive: 18.3 µM [activator, partial curve]"
18,Cn1nccc1/C=C(/C#N)S(=O)(=O)c1ccccc1,inactive
19,Cc1ccnc(NC(=O)Cc2c(F)cccc2Cl)c1,inactive
20,CCCOc1ccc(NC(=O)Cc2ccc(S(=O)(=O)N3CCOCC3)s2)cc1OCCC,"inconclusive: 11.6 µM [inhibitor, partial curve, poor fit]"
21,NC(=O)c1cc(S(=O)(=O)NCc2cccs2)cs1,"inconclusive: 20.6 µM [activator, partial curve, poor fit]"
22,Oc1ccc2[nH]ccc2c1,"inconclusive: 4.47 µM [inhibitor, partial curve, poor fit]"
23,O=C(c1cccc([N+](=O)[O-])c1)c1cc2ccccc2o1,"inconclusive: 23.1 µM [activator, single point]"

# Given tab-delimited: part of the list above
row	Compound	Potency
1	Cc1cc(C)n(CCNc2nc3nonc3nc2N2CCCCC2)n1	inactive
2	O=C(Nc1ccc([N+](=O)[O-])cc1)N1CCc2ccccc2C1	inconclusive: 29.1 µM [inhibitor, single point]
3	CCCCCCn1cnc2c(oc3nc4c(cc32)CCCC4)c1=O	inconclusive: 8.2 µM [activator, partial curve]

# Next part

row,Compound,Potency
1,O=C1N/C(=N\N=C\c2cccnc2)SC1Cc1ccc(SC(F)F)cc1 (configuration not stated),inactive
2,Fc1ccc2[nH]c3c(N4CCSCC4)ncnc3c2c1,"inconclusive: 23.1 µM [inhibitor, partial curve]"
3,COc1ccc(C(CNC(=O)c2oc3ccc(Br)cc3c2C)N2CCCCC2)cc1 (configuration not stated),"inconclusive: 23.1 µM [inhibitor, partial curve]"
4,CCOC(=O)c1sc(NC(=O)c2cc3ccccc3o2)nc1C,"inconclusive: 8.2 µM [activator, partial curve]"
5,O=c1ccc(S(=O)(=O)N2CCCC2)c[nH]1,"inconclusive: 20.6 µM [activator, single point]"
6,Cc1ccc2c(CN(C)Cc3cccc(Cl)c3)cc(=O)oc2c1C,"inconclusive: 25.9 µM [activator, single point]"
7,COc1ccc(C(=O)NCc2nnc(SCC(=O)N3CCCC3)o2)cc1OC,inactive
8,O=C(Nc1cccc([N+](=O)[O-])c1)c1cc2ccccc2cc1O,"inconclusive: 18.3 µM [activator, partial curve]"
9,CNC[C@H](CC1CCCCC1)NC[C@H](CO)NCCc1cccc(C(F)(F)F)c1,inactive
10,CCOC(=O)C(NC(=O)c1ccc(F)cc1)(Nc1sc2c(c1C(N)=O)CCC2)C(F)(F)F (configuration not stated),inactive
11,O=C(Oc1ccc2c(=O)c(Cl)coc2c1)c1cccnc1,"inconclusive: 29.1 µM [activator, single point]"
12,CN(CC(=O)Nc1ccccc1Br)C(=O)c1cc(Cl)nc2ccccc12,inactive
13,O=C1NC(Cc2ccc(O)cc2)c2nc3ccc(Br)cc3c(=O)n2-c2ccc(Cl)cc21 (configuration not stated),inactive
14,COc1ccccc1NC(=O)Cc1csc(NC(=S)Nc2ccccc2)n1,inactive
15,Cc1cccc(OCCNC(=O)c2ccc(Cl)c(S(=O)(=O)NCc3cccnc3)c2)c1,"inconclusive: 2.06 µM [inhibitor, partial curve, poor fit]"
16,O=C(Nc1nc2c(F)cccc2s1)c1ccc([N+](=O)[O-])o1,"inconclusive: 23.1 µM [activator, partial curve]"
17,COc1ccc(-c2cc3nc(-c4ccccc4)cc(N4CCC(O)CC4)n3n2)cc1,active: 16.4 µM
18,COc1ccc([C@@H]2CC=C(C(=O)O)[C@H](c3cccc(Cl)c3)N2S(=O)(=O)c2ccccc2C)cc1,"inconclusive: 8.91 µM [activator, single point]"
19,Clc1ccc(CSc2ncccn2)cc1,"inconclusive: 20.6 µM [activator, single point]"
20,CCCCCCN=C(C)c1ccccc1O,inactive
21,C#CCOCCOCCOCCNc1nc(N2CCN(C(=O)CCCCCCCCCCNC(=O)[C@H]([C@@H](C)CC)n3cc(CCCCCN)nn3)CC2)nc(N2CCN(C(=O)CCCCCCCCCCNC(=O)[C@@H]([C@H](C)O)n3cc(C)nn3)CC2)n1,"inconclusive: 3.55 µM [inhibitor, single point]"
22,COc1ccc(C(=O)Nc2ccc3cn[nH]c3c2)c(OC)c1,"inconclusive: 11.6 µM [activator, partial curve]"
23,COc1ccc2sc(N(CCCN(C)C)C(=O)c3nc4ccccc4s3)nc2c1,"inconclusive: 18.3 µM [activator, partial curve]"

row,Compound,Potency
1,CCOC(=O)Cc1ccc(NC(=O)c2ccc([N+](=O)[O-])cc2)cc1,"inconclusive: 5.8 µM [inhibitor, full curve]"
2,O=C(N/N=C/c1ccccc1C(F)(F)F)c1ccc(O)cc1,"inconclusive: 13 µM [activator, partial curve]"
3,CCc1ccc2[nH]c(O)c(N=NC3=NC(=O)CS3)c2c1,inactive
4,O=c1c(Br)c(N2CCCCC2)cnn1-c1ccccc1,"inconclusive: 9.2 µM [activator, partial curve]"
5,Cc1ccccc1/C=N/NC(=O)CSc1nc2ccccc2o1,"inconclusive: 14.6 µM [activator, partial curve]"
6,CCCCOc1ccc(C2C(C(=O)c3ccc(C)o3)=C(O)C(=O)N2CC2CCCO2)cc1 (configuration not stated),inactive
7,Cc1ccc(C2C(C#N)=C(N)OC3=C2C(=O)CCC3)s1 (configuration not stated),"inconclusive: 20.6 µM [activator, partial curve, poor fit]"
8,O=C1c2oc3ccc(Cl)cc3c(=O)c2C(c2ccccn2)N1CCCN1CCOCC1 (configuration not stated),"inconclusive: 25.9 µM [activator, single point]"
9,CCN(Cc1nc2cc(Cl)ccc2c(=O)[nH]1)C(=O)c1cccc(OCc2c(C)noc2C)c1,"inconclusive: 20.6 µM [inhibitor, single point]"
10,CCOC(=O)c1ccc(N2NC(=O)/C(=C/c3ccc(OC(=O)c4ccco4)c(OC)c3)C2=O)cc1,"inconclusive: 20.6 µM [activator, single point]"
11,COC(=O)c1cc(NC(=O)CN(c2ccc(OC)cc2)S(=O)(=O)c2ccc(F)cc2)ccc1Cl,"inconclusive: 20.6 µM [inhibitor, partial curve, poor fit]"
12,CCN(CC(=O)Nc1c(F)cccc1F)C(=O)/C=C/c1ccc(S(=O)(=O)N2CCCCCC2)cc1,"inconclusive: 11.6 µM [inhibitor, partial curve, poor fit]"
13,CCN(CC)S(=O)(=O)c1ccc(N2CCOCC2)c(NC(=O)c2ccccc2)c1,"inconclusive: 23.1 µM [inhibitor, partial curve, poor fit]"
14,CCOc1ccc(N(CC(=O)NC2CCCCC2)C(=O)CCC(=O)Nc2nccs2)cc1,inactive
15,Nc1ccc(C(=O)N/N=C/c2cccc(Oc3ccccc3)c2)cc1,"inconclusive: 32.6 µM [activator, single point]"
16,COc1ccc(S(=O)(=O)N2CCOC2CNC(=O)C(=O)NCCc2ccccc2OC)cc1 (configuration not stated),inactive
17,Cc1cc(=O)oc2cc(OCC(=O)N3CC(=O)Nc4ccccc43)c(Cl)cc12,inactive
18,O=c1c2ccccc2nc2n1C(CSCc1ccccc1)CS2 (configuration not stated),"inconclusive: 18.4 µM [inhibitor, partial curve, poor fit]"
19,COCCn1c(C)cc(C(=O)COC(=O)c2ccc(Br)o2)c1C,"inconclusive: 16.4 µM [activator, partial curve]"
20,CS(=O)(=O)c1ccc(Cl)c(NC(=O)c2cccc(-n3cnnn3)c2)c1,inactive
21,Cc1ccc2cc(COC(=O)c3ccco3)c(=O)[nH]c2c1,inactive
